What all share (experiment): EMSA
Data set [1] relates to IRF4-WT DBD + JUNB DBD + BATF DBD.
Data set [2] relates to JUNB + BATF. Particulars: protein in a lysate after overexpression.
For data set [3], the system named is IRF4-C99R DBD + JUNB DBD + BATF DBD.

The source of these data is article doi:10.1101/2022.12.29.522203.

For part of these data: No signal at the amounts used counts as a negative. For part of these data: At least one verdict was read from the data and is not stated in words by the source. The exact form of at least one protein or probe is not confirmed. For part of these data: Where cells or extracts were used, other partners may take part.

Regarding “AGTGCATGTATGAGTCAGAGATC / AGGATCTCTGACTCATACATGCA [AICE2FLIP IRFMut short]”, the binding result in data set [1] (composite complex abolished) is “no binding”. In the case of “AGCTTAGTGCAGAAATGAGTCAGAGATCAAAGAAG / AGCTCTTCTTTGATCTCTGACTCATTTCTGCACTA [AICE2 (Bcl11b)]”, the binding result in data set [2] is on record as “binds”. With “AGTGCATACATGAGTCAGAGATC / AGGATCTCTGACTCATGTATGCA [AICE2 (Bcl11b) IRFMut short]”, the binding result in data set [1] (composite complex abolished) is reported as “no binding”. As for “AGCTCTTGCCTTAGAGGTTTCGGGATGACTAATACTGTA / AGCTTACAGTATTAGTCATCCCGAAACCTCTAAGGCAAG [AICE1 (Ctla4)]”, the binding result in data set [2] is listed as “binds”. Turning to “AGTGCATTTCTGAGTCAGAGATC / AGGATCTCTGACTCAGAAATGCA [AICE2FLIP short]”, the binding result in data set [3] is recorded as “binds”; in data set [1] (C99R binds exclusively), “no binding”.
